Test results reported in patent publication US20080089886A1.

target: soluble HLA-B*0702 (human); test: fluorescence polarization competition on soluble HLA-B*0702

| Binder | binding |
| --- | --- |
| NSRPPAVIL [C35 peptide N107 to L115 (analog with Ala substituted for Cys at 112)] | binds |
| EPGQTSVAP [C35 peptide E4 to P12] | binds |
| GAFEIEING [C35 peptide G63 to G71] | binds |
| TGAFEIEIN [C35 peptide T62 to N70] | binds |

target: HLA-A*0201 (human); test: fluorescence polarization competition, test peptide at 100 µM

| Binder | binding |
| --- | --- |
| SVAPPPEEV [C35 peptide S9 to V17] | binds |
| SGVRIVVEY [C35 peptide S21 to Y29] | binds |
| FEIEINGQL [C35 peptide F65 to L73] | binds |
| TYLELASAV [C35 peptide T38 to V46] | binds |
| GTGAFEIEI [C35 peptide G61 to I69] | binds |

Results are given in words; binding and its absence hold for the method and conditions named. Binding can be weak; no strength is given.
